Where a sequence shows no end group, the ends are not given. Strings that start with PEPTIDE1 are HELM notation: dots part the residues, brackets hold end groups and non-standard residues. Where no end group is shown, it is not given here.
test: general procedure: peptide synthesis; dicyclohexylcarbodiimide and 1-hydroxybenzotriazole; conditions: whole synthesis

| Substance | purity (crude or final not stated) [%] |
| --- | --- |
| PEPTIDE1{N.S.V.N.V.P.S.E.L.D.L.R.S.L.R.T}$$$$V2.0 | 74.5 |
| KPFQLEAVFEANQNTK | 90.1 |
| PEPTIDE1{H.I.G.I.I.D.L.K.G.E.L.D.M.R.N}$$$$V2.0 | 66.4 |
| PEPTIDE1{K.A.V.D.E.A.V.A.A.I.E.K.S}$$$$V2.0 | 86.8 |
| RNQSLDLAEQELVDCASQH | 60.1 |
| IDLKGELDMRNIQ | 68.7 |
| DGLEVDVPGIDPNACH (listed as Dermatophagoides pteronyssinus) | 66.7 |
| TAIFQDTVRAEMTK | 79.1 |
| PEPTIDE1{K.S.E.T.F.D.P.M.K.V.P.D.H.S.D}$$$$V2.0 | 92.5 |
| PEPTIDE1{E.T.F.D.P.M.K.V.P.D.H.S.D.K}$$$$V2.0 | 91.7 |
| RTVTPIRMQGGCG | 79.6 |
| EAVFEANQNTKTAK | 90.3 |
| RYVAREQSCRRPN | 79.7 |
| RGKPFQLEAVFEANQNT | 82.6 |
| PEPTIDE1{I.G.I.K.D.L.D.A.F.R.H.Y.D}$$$$V2.0 | 77.6 |
| VSMEYDLAYKLGDLH | 66.9 |
| KPFQLEAVFEANQNT | 88.7 |
| HDDVVSMEYDLAYKL | 80.9 |
| PEPTIDE1{A.K.I.E.I.K.A.S.L.D.G.L.E}$$$$V2.0 | 65.9 |
| DKFERHIGIIDLK | 81.4 |

| Substance | purity (crude or final not stated) [%] |
| --- | --- |
| RNIQVRGLKQMKRVG | 74.7 |
| PEPTIDE1{R.N.S.W.D.T.N.W.G.D.N.G.Y.G}$$$$V2.0 | 70.0 |
| CIIHRGKPFQLEA | 77.4 |
| PEPTIDE1{A.N.V.K.S.E.D.G.V.V.K.A.H}$$$$V2.0 | 76.5 |
| PEPTIDE1{K.D.L.D.A.F.R.H.Y.D.G.R.T}$$$$V2.0 | 72.9 |
| PEPTIDE1{R.T.I.I.Q.R.D.N.G.Y.Q.P.N.Y}$$$$V2.0 | 70.7 |
| PEPTIDE1{P.N.V.N.K.I.R.E.A.L.A.Q.T}$$$$V2.0 | 88.6 |
| PEPTIDE1{E.Y.I.Q.H.N.G.V.V.Q.E.S.Y}$$$$V2.0 | 77.5 |
| RGLKQMKRVGDAN | 84.0 |
| PEPTIDE1{E.T.F.D.P.M.K.V.P.D.H.S.D}$$$$V2.0 | 84.7 |
| LDMRNIQVRGLKQ | 70.3 |
| PEPTIDE1{I.D.L.K.G.E.L.D.M.R.N.I.Q.V.R}$$$$V2.0 | 85.2 |
| REALAQTHSAIAVI | 69.6 |
| DDVVSMEYDLAYK | 84.9 |
| IDLRQMRTVTPIR | 79.2 |
| PEPTIDE1{N.K.I.R.E.A.L.A.Q.T.H.S.A}$$$$V2.0 | 87.6 |
| PEPTIDE1{D.Q.V.D.V.K.D.C.A.N.H.E.I.K.K}$$$$V2.0 | 81.4 |
| PEPTIDE1{K.R.V.G.D.A.N.V.K.S.E.D.G}$$$$V2.0 | 82.9 |
| DTVRAEMTKVLAP | 69.5 |

From US9340580B2 (priority 2007, dated 2016)
